PubChem BioAssay AID504791, Drosophila RNAi Screening Center | 2011
Aim: 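Genes whose knock-down strengthens or weakens small-RNA reporter silencing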 (primary screen). Cells: Drosophila S2-derived reporter cells. Knock-down reagent: long dsRNA against Drosophila genes, about 150-250 ng dsRNA per well (siRNA assay); about 80-120 ng (miRNA assay). Time to read-out: about 5 days (siRNA assay); about 4 days (miRNA assay). Conditions: copper sulfate induction of reporters: 25 µM (siRNA assay); 200 mM stated (miRNA assay), 1-2 days before reading. Measurement: 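Per-well ratio of Renilla over firefly light, expressed relative to that plate's average ratio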. Reading the numbers: siRNA reporter hit score: higher = 3 marks a strong hit with raised ratio; -3 a strong hit with lowered ratio. Units: stable assay Renilla, run 1 in luminescence; stable assay firefly, run 1 in luminescence. Rule for the call: 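a well was a first-pass pick when its plate-scaled ratio rose above 1.5 (siRNA assay) or 1.6 (miRNA assay), or dropped below 0.6; a gene counted only if two separate dsRNAs agreed on retest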.
The screen tested about 23,000 reagents; shown is an unselected part of those that have a named target and a result. Over the whole deposit, 199 (0.86%) are marked active. 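Plate-scaled ratios behind the calls are not deposited; printed light signals are raw; many rows marked increased or decreased are still called inactive.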 Names joined by + are all predicted targets of the reagent.

| gene knocked down | amplicon | siRNA reporter hit score | miRNA reporter change | stable assay Renilla, run 1 | stable assay firefly, run 1 | Outcome |
| --- | --- | --- | --- | --- | --- | --- |
| CG6330 | DRSC16022 | – | – | 7686 | 4.04e5 | inactive |
| Ctu2 (Cytosolic thiouridylase subunit 2) | DRSC02024 | – | – | 2.92e5 | 1.31e6 | inactive |
| Phae1 (Phaedra 1) | DRSC02554 | – | – | 6758 | 4.79e5 | inactive |
| CG34178 + CG34177 | DRSC00351 | – | – | 7506 | 4.21e5 | inactive |
| CG13071 | DRSC09954 | – | – | 7531 | 4.03e5 | inactive |
| CG14743 | DRSC06479 | – | – | 7215 | 3.28e5 | inactive |
| Eh (Eclosion hormone) | DRSC16660 | – | – | 6694 | 3.77e5 | inactive |
| CG7906 | DRSC10928 | – | – | 7750 | 2.95e5 | inactive |
| CG14892 | DRSC15014 | – | reporter ratio lowered past the hit cutoff | 8247 | 5.59e5 | inactive |
| Marf1 (Meiosis regulator and mRNA stability factor 1) | DRSC03747 | – | – | 7430 | 4.50e5 | inactive |
| Marf1 (Meiosis regulator and mRNA stability factor 1) | DRSC03774 | – | – | 5159 | 2.90e5 | inactive |
| CG5608 | DRSC15841 | – | – | 7554 | 4.60e5 | inactive |
| ms(2)34Fe (male sterile (2) 34Fe) | DRSC01905 | – | – | 6811 | 3.41e5 | inactive |
| RpL22-like (Ribosomal protein L22-like) | DRSC04582 | – | – | 6299 | 4.78e5 | inactive |
| CG6553 | DRSC07002 | – | – | 6931 | 4.00e5 | inactive |
| CG16824 | DRSC02525 | -3 | – | 7083 | 4.65e5 | inactive |
| CG17177 | DRSC10257 | – | – | 7389 | 5.13e5 | inactive |
| Mlc2 (Myosin light chain 2) | DRSC16741 | – | – | 7764 | 4.78e5 | inactive |
| bi (bifid) | DRSC18742 | – | – | 5138 | 4.36e5 | inactive |
| Galk (Galactokinase) | DRSC10500 | – | – | 8816 | 4.66e5 | inactive |
| CG15198 | DRSC19645 | – | – | 5391 | 4.87e5 | inactive |
| Ten-a (Tenascin accessory) | DRSC18924 | – | – | 5279 | 4.15e5 | inactive |
| Ten-a (Tenascin accessory) | DRSC19496 | – | – | 4923 | 2.93e5 | inactive |
| Ten-a (Tenascin accessory) | DRSC19700 | – | – | 4451 | 3.56e5 | inactive |
| Ten-a (Tenascin accessory) | DRSC19793 | – | – | 5070 | 4.09e5 | inactive |
| Ten-a (Tenascin accessory) | DRSC19864 | – | – | 4707 | 4.05e5 | inactive |
| Ten-a (Tenascin accessory) | DRSC19865 | – | – | 5278 | 4.34e5 | inactive |
| Ten-a (Tenascin accessory) | DRSC20290 | – | – | 4452 | 3.69e5 | inactive |
| Ten-a (Tenascin accessory) | DRSC21461 | – | reporter ratio raised past the hit cutoff | 11600 | 5.33e5 | inactive |
| Ten-a (Tenascin accessory) | DRSC23016 | – | – | 5248 | 3.96e5 | inactive |
| Sps1 (Selenophosphate synthetase 1) | DRSC07549 | – | – | 6371 | 3.83e5 | inactive |
| CG6576 | DRSC10663 | – | – | 6234 | 3.38e5 | inactive |
| CG13847 | DRSC14697 | – | – | 6816 | 2.38e5 | inactive |
| CG13847 | DRSC23172 | – | – | 4391 | 2.82e5 | inactive |
| CG5131 | DRSC02817 | – | – | 7066 | 4.59e5 | inactive |
| CG4511 | DRSC15589 | – | – | 6495 | 3.81e5 | inactive |
| CG8997 | DRSC01900 | – | – | 7035 | 3.82e5 | inactive |
| yellow-b | DRSC03639 | – | – | 7970 | 1.67e6 | inactive |
| CG13872 | DRSC06431 | – | – | 6451 | 3.14e5 | inactive |
| CBP (sarcoplasmic calcium-binding protein) | DRSC17746 | – | – | 8871 | 5.60e5 | inactive |
| Asap (ArfGAP with SH3 domain, ankyrin repeat and PH domain) | DRSC06493 | – | – | 7366 | 4.22e5 | inactive |
| Asap (ArfGAP with SH3 domain, ankyrin repeat and PH domain) | DRSC06830 | – | – | 8887 | 4.09e5 | inactive |
| CtsL1 (Cathepsin L1) | DRSC05462 | – | – | 7059 | 3.99e5 | inactive |
| CtsL1 (Cathepsin L1) | DRSC07363 | – | – | 8238 | 3.81e5 | inactive |
| CG5921 | DRSC17431 | – | – | 5344 | 3.98e5 | inactive |
| CG5921 | DRSC18390 | – | – | 5804 | 3.16e5 | inactive |
| ACOX1 (acyl-CoA oxidase 1) | DRSC05941 | – | – | 11821 | 3.79e5 | inactive |
| sowi (solwind) | DRSC12558 | – | – | 6710 | 4.48e5 | inactive |
| CG2202 | DRSC19841 | – | – | 4223 | 3.98e5 | inactive |
| syd (sunday driver) | DRSC10963 | – | – | 7075 | 2.91e5 | inactive |
| CG3732 | DRSC04410 | – | – | 8619 | 1.55e6 | inactive |
| Gp93 (Glycoprotein 93) | DRSC15827 | – | – | 6980 | 3.75e5 | inactive |
| Atg6 (Autophagy-related 6) | DRSC15798 | 3 | – | 9630 | 3.42e5 | inactive |
| CG3287 (retired record) | DRSC04991 | – | – | 7282 | 5.66e5 | inactive |
| Ilp2 (Insulin-like peptide 2) | DRSC10968 | – | – | 8515 | 4.31e5 | inactive |
| ens (ensconsin) | DRSC08454 | – | – | 7323 | 3.74e5 | inactive |
| I-t (inhibitor-t) | DRSC16713 | – | – | 6922 | 3.77e5 | inactive |
| Ugt37A2 (UDP-glycosyltransferase family 37 member A2) | DRSC15861 | – | – | 6843 | 4.01e5 | inactive |
| lncRNA:iab4 (long non-coding RNA:iab4) | DRSC22331 | – | – | 9321 | 5.51e5 | inactive |
| Lfg (Lifeguard) | DRSC06853 | – | reporter ratio raised past the hit cutoff | 5795 | 3.00e5 | active |
| CG32026 | DRSC08950 | – | – | 4280 | 3.58e5 | inactive |
| Gs1 (Glutamine synthetase 1) | DRSC00753 | – | – | 11201 | 5.40e5 | inactive |
| CG30340 | DRSC05167 | – | reporter ratio raised past the hit cutoff | 4878 | 4.23e5 | inactive |
| CG9981 | DRSC20225 | – | – | 4971 | 4.46e5 | inactive |
| Gr5a (Gustatory receptor 5a) | DRSC18085 | – | – | 6270 | 2.92e5 | inactive |
| Ir56b (Ionotropic receptor 56b) | DRSC06543 | – | – | 6959 | 3.37e5 | inactive |
| Ir56b (Ionotropic receptor 56b) | DRSC28758 | – | reporter ratio lowered past the hit cutoff | – | – | inactive |
| CG9132 | DRSC20159 | – | – | 7406 | 4.92e5 | inactive |
| Atg4a (Autophagy-related 4a) | DRSC00656 | – | – | 91108 | 2.64e5 | inactive |
| Sec31 (Secretory 31) | DRSC07131 | – | – | 7283 | 3.71e5 | inactive |
| Nf-YA (Nuclear factor Y-box A) | DRSC10385 | – | – | 4983 | 2.42e5 | inactive |
| Nf-YA (Nuclear factor Y-box A) | DRSC23126 | – | – | 4199 | 2.70e5 | inactive |
| CG16781 | DRSC18117 | – | – | 6318 | 4.76e5 | inactive |
| ind (intermediate neuroblasts defective) | DRSC11355 | – | – | 5303 | 2.09e5 | inactive |
| ind (intermediate neuroblasts defective) | DRSC23095 | – | – | 3527 | 2.36e5 | inactive |
| Polr2C (RNA polymerase II subunit C) | DRSC03415 | – | – | 5320 | 1.07e6 | inactive |
| spn-A (spindle A) | DRSC16812 | – | – | 6516 | 5.21e5 | inactive |
| Dgkepsilon (Diacyl glycerol kinase epsilon) | DRSC07399 | – | – | 7746 | 3.93e5 | inactive |
| lva (lava lamp) | DRSC18403 | – | – | 7019 | 4.74e5 | inactive |
| lds (lodestar) | DRSC16988 | – | – | 6343 | 3.67e5 | inactive |
| CG42565 | DRSC04154 | – | – | 6523 | 4.21e5 | inactive |
| CG14591 | DRSC04868 | – | – | 7187 | 4.14e5 | inactive |
| Tbca (Tubulin binding cofactor A) | DRSC15395 | – | – | 7374 | 4.40e5 | inactive |

Records listed so far whose target name starts with T or t (10):
| gene knocked down | amplicon | siRNA reporter hit score | miRNA reporter change | stable assay Renilla, run 1 | stable assay firefly, run 1 | Outcome |
| --- | --- | --- | --- | --- | --- | --- |
| Ten-a (Tenascin accessory) | DRSC18924 | – | – | 5279 | 4.15e5 | inactive |
| Ten-a (Tenascin accessory) | DRSC19496 | – | – | 4923 | 2.93e5 | inactive |
| Ten-a (Tenascin accessory) | DRSC19700 | – | – | 4451 | 3.56e5 | inactive |
| Ten-a (Tenascin accessory) | DRSC19793 | – | – | 5070 | 4.09e5 | inactive |
| Ten-a (Tenascin accessory) | DRSC19864 | – | – | 4707 | 4.05e5 | inactive |
| Ten-a (Tenascin accessory) | DRSC19865 | – | – | 5278 | 4.34e5 | inactive |
| Ten-a (Tenascin accessory) | DRSC20290 | – | – | 4452 | 3.69e5 | inactive |
| Ten-a (Tenascin accessory) | DRSC21461 | – | reporter ratio raised past the hit cutoff | 11600 | 5.33e5 | inactive |
| Ten-a (Tenascin accessory) | DRSC23016 | – | – | 5248 | 3.96e5 | inactive |
| Tbca (Tubulin binding cofactor A) | DRSC15395 | – | – | 7374 | 4.40e5 | inactive |
